PubChem BioAssay AID504786 | Drosophila RNAi Screening Center – 2011

Assay: 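Positive regulators of HIF-driven reporter output in Drosophila cells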 (primary screen)
Cell system: Drosophila S2 cells with a stable HIF luciferase reporter
Reagents: long dsRNA against Drosophila genes, about 0.2 µg dsRNA per well of a 384-well plate
Timing: three days of knock-down, then 20 h of DFO before reading
Conditions: desferrioxamine (DFO) at 100 µM, an iron chelator that mimics hypoxia, for 20 h
Measurement: 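HIF reporter luminescence in cells given 100 µM DFO for 20 h, using the mouse ldh-a hypoxia-response element, scored as per-plate z-scores; higher means greater loss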
Scale: z-score: higher = stronger loss of HIF reporter signal
The deposit covers about 21,000 reagents; shown is an unselected part of those that have a named target and a result. 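Primary screen; positive scores mean lost reporter signal, so the sign may be inverted from the usual convention.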 Names joined by + are all predicted targets of the reagent. Reagent sequences are not shown.

predicted target,DRSC id,"z-score, replicate 1","z-score, replicate 2","z-score, replicate 3","z-score, replicate 4"
CG15864,DRSC15122,0,-0.5,,
CG3092,DRSC04336,-0.3,-0.1,,
Ir85a (Ionotropic receptor 85a),DRSC14382,-0.3,-0.7,,
CG11710,DRSC20485,-0.4,-0.6,,
Sec3 (Secretory 3),DRSC10384,-0.4,-0.7,,
CG4570,DRSC15602,4.1,2.4,,
Obp8a (Odorant-binding protein 8a),DRSC17868,-0.3,-0.1,,
sns (sticks and stones),DRSC06423,0.6,3.3,,
sns (sticks and stones),DRSC07687,0.1,0.9,,
sns (sticks and stones),DRSC07688,-1,-0.4,,
sns (sticks and stones),DRSC07689,-0.2,-0.1,,
sns (sticks and stones),DRSC07691,-0.3,-0.2,,
sns (sticks and stones),DRSC07692,-0.1,-0.2,,
crp (cropped),DRSC03515,-0.4,2.7,,
CG10949,DRSC02112,0,-0.2,,
bsk (basket),DRSC03499,-0.3,-0.8,,
eEF1alpha2 (eukaryotic translation elongation factor 1 alpha 2),DRSC14079,-0.2,0.1,,
eEF1alpha2 (eukaryotic translation elongation factor 1 alpha 2),DRSC16658,1.9,2.9,,
jim,DRSC11889,-0.3,-0.5,,
Lerp (lysosomal enzyme receptor protein),DRSC14750,-0.5,-0.9,,
Lerp (lysosomal enzyme receptor protein),DRSC14751,-0.3,-0.6,,
Lerp (lysosomal enzyme receptor protein),DRSC16030,-0.4,-0.6,,
Lerp (lysosomal enzyme receptor protein),DRSC16031,-0.2,-0.5,,
"TrpRS-m (Tryptophanyl-tRNA synthetase, mitochondrial)",DRSC10848,-0.3,-0.3,,
Tpc1,DRSC15614,-0.4,-0.8,,
Tpc1,DRSC16074,-0.4,-0.5,,
CG15144,DRSC02445,-0.3,-0.8,,
Phk-3 (Pherokine 3),DRSC04547,-0.2,0,,
CG3817,DRSC15515,-0.3,0.2,,
Roc1b + Cdc5,DRSC08687,-0.2,0.3,,
sll (slalom),DRSC16271,-0.2,-0.5,,
ppk11 (pickpocket 11),DRSC02737,-0.3,0.1,,
CG13531,DRSC04173,-0.3,0.1,,
CG15443,DRSC00455,-0.2,0.4,,
CG34149,DRSC14537,-0.3,-0.5,,
CG32221,DRSC09638,-0.3,-1,,
CG13461,DRSC10008,-0.1,0.1,,
chas (chascon),DRSC19508,-0.2,-0.6,,
chas (chascon),DRSC19509,-0.3,-0.2,,
Obp19b (Odorant-binding protein 19b),DRSC20536,0.1,0.4,,
CG9962,DRSC00739,-0.2,-0.3,,
ND-B17.2 (NADH dehydrogenase (ubiquinone) B17.2 subunit),DRSC00577,-0.1,-0.2,,
Cyp12e1 (Cytochrome P450 12e1),DRSC16622,-0.2,-0.3,,
"Lamtor1 (Late endosomal/lysosomal adaptor, MAPK and MTOR activator 1)",DRSC10183,-0.3,-0.5,,
MstProx,DRSC12458,0,-0.3,,
MstProx,DRSC12601,-0.4,-0.3,,
Kap3 (Kinesin associated protein 3),DRSC19426,-0.3,-0.6,,
CG14106,DRSC10109,-0.3,-0.4,,
CG11597,DRSC09847,-0.1,0.4,,
TMEM216 + CG11760,DRSC14375,-0.3,-0.2,,
Tsp42Ep (Tetraspanin 42Ep),DRSC06871,-0.1,-0.3,,
Ir87a (Ionotropic receptor 87a),DRSC14836,-0.2,-0.6,,
Ubc4 (Ubiquitin conjugating enzyme 4),DRSC11312,-0.4,-0.1,,
Damm (Death associated molecule related to Mch2 caspase),DRSC07393,-0.4,-0.5,,
lqf (liquid facets),DRSC11363,-0.5,-0.9,,
ND-23 (NADH dehydrogenase (ubiquinone) 23 kDa subunit),DRSC15526,-0.1,-0.2,,
CG4872,DRSC19921,-0.4,-0.9,,
kune (kune-kune),DRSC04860,0,-0.2,,
dpr2 (defective proboscis extension response 2),DRSC02370,-0.3,-0.5,,
dpr2 (defective proboscis extension response 2),DRSC02371,-0.3,-0.3,,
msd1 (mitotic spindle density 1),DRSC08383,-0.2,0,,
Nulp1 (Nuclear localized protein 1),DRSC09677,-0.2,-0.3,,
CG31111,DRSC14649,-0.5,-0.5,,
CG11756,DRSC19424,-0.4,0.5,,
CG42516 + Pbp49,DRSC06073,-0.3,-0.4,,
zen (zerknullt),DRSC12632,-0.4,-0.4,,
gammaSnap1 (gamma Soluble NSF attachment protein 1),DRSC04686,-0.2,-0.4,,
CG1552,DRSC19665,-0.4,-0.4,,
Nup75 (Nucleoporin 75kD),DRSC06947,-0.1,-0.4,,
CG14490,DRSC06461,-0.2,-0.5,,
Pngl (PNGase-like),DRSC04914,-0.4,-0.1,,
CG13868,DRSC06427,-0.2,-0.5,,
unc (uncoordinated),DRSC20511,0.3,0.5,,
CG42505 + CG42504 + CG31358,DRSC15235,-0.3,-0.3,,
CG42505 + CG42504 + CG31358,DRSC15308,-0.2,-0.2,,
CG42505 + CG42504 + CG31358,DRSC15309,-0.2,-0.3,,
CG14234,DRSC19317,0.3,0.3,,
CG14234,DRSC19589,0.1,0.6,,
CG7728,DRSC10907,-0.3,-0.1,,
CG30060,DRSC05419,-0.2,-0.3,,
stan (starry night),DRSC05234,4.1,4,,
stan (starry night),DRSC07697,-0.2,-0.4,,
TfAP-2 (Transcription factor AP-2),DRSC11601,-0.3,-0.2,,
Xpd (Xeroderma pigmentosum D),DRSC04666,-0.4,-1.2,,
Pfk (Phosphofructokinase),DRSC07506,-0.3,-0.1,,
Gug (Grunge),DRSC11179,-0.3,0,,
bug (bunker gear),DRSC07137,-0.3,-0.5,,
Gld2 (GLD2 poly(A) polymerase),DRSC15863,2.6,-0.6,,
CG10301,DRSC14226,0.1,0,,
srw (shrew),DRSC08201,-0.3,-0.5,,
mago (mago nashi),DRSC04703,1.5,1.5,,
CG9973 (retired record),DRSC08646,-0.1,-0.4,,
mRpL21 (mitochondrial ribosomal protein L21),DRSC11100,0.9,1.1,,
CG13615,DRSC14618,-0.5,-0.2,,
snRNA:U1:95Cc + snRNA:U1:95Cb,DRSC13641,-0.2,-0.2,,
Uxs (UDP-xylose synthase),DRSC10941,-0.3,0,,
CG1324,DRSC20496,-0.1,0.5,,
CG33299,DRSC01085,-0.5,-0.1,,
RnrS (Ribonucleoside diphosphate reductase small subunit),DRSC07533,2.4,1.6,,
CG30114,DRSC05707,0.5,1.3,,
Hel89B (Helicase 89B),DRSC16700,-0.1,-0.6,-0.6,-0.2
CG10163,DRSC09710,-0.3,-0.8,,
cv-c (crossveinless c),DRSC14969,-0.2,-0.3,,
cv-c (crossveinless c),DRSC14970,-0.3,-0.5,,
cv-c (crossveinless c),DRSC14971,-0.3,-0.1,,
cv-c (crossveinless c),DRSC14972,-0.1,0.1,,
cv-c (crossveinless c),DRSC14973,-0.4,-0.8,,
cv-c (crossveinless c),DRSC16428,-0.3,1,,

Not a retest: entries from further up.
predicted target,DRSC id,"z-score, replicate 1","z-score, replicate 2","z-score, replicate 3","z-score, replicate 4"
RnrS (Ribonucleoside diphosphate reductase small subunit),DRSC07533,2.4,1.6,,
CG30114,DRSC05707,0.5,1.3,,
Hel89B (Helicase 89B),DRSC16700,-0.1,-0.6,-0.6,-0.2
CG10163,DRSC09710,-0.3,-0.8,,
cv-c (crossveinless c),DRSC14969,-0.2,-0.3,,
cv-c (crossveinless c),DRSC14970,-0.3,-0.5,,
